Source: paper doi:10.1101/2025.09.10.675329
These are yes or no findings as the source states them, for the method shown. Binding seen in cells or lysates may run through a third protein. Some entries that bind do so weakly or less than the wild type. Each block holds one substance with its values, some of them ahead of it.

How the values were obtained:
[1] = target: His-MBP-CDK5 (human) (UniProt Q00535); test: pull-down
[2] = target: His-MBP-cyclin B1 (amino acids 152-433, C167S, C238S, C350S) (human) (UniProt P14635); test: pull-down
[3] = target: Flag-HA-CDK5 WT (human) (UniProt Q00535); test: co-IP
[4] = target: Flag-HA-CDK5-G152F (human) (UniProt Q00535); test: co-IP
[5] = target: Flag-HA-CDK5-G152W (human) (UniProt Q00535); test: co-IP

binding [1]: binds
Substance: His-cyclin B1 (amino acids 152-433, C167S, C238S, C350S) (from UniProt P14635 152-433) (domain or fragment)

binding [2]: binds
Substance: His-CDK5 (from UniProt Q00535 1-292) (enzyme)

binding [3]: binds
binding [4]: binds
binding [5]: binds
Substance: cyclin B1 (endogenous, RPE-1) (from UniProt P14635 1-433)
